Laboratory results from article PMC12475854.
Results are given in words; binding and its absence hold for the method and conditions named. Binding seen in cells or lysates may run through a third protein. Here binding means that the protein was enriched with, or labelled near, the bait; the list need not be complete. For some assays here: A no says only that the protein was not detected with the bait. Tags and fused reporters may be left off the sequences shown.

Sequences of proteins named here, by UniProt entry; tags and fusion partners are left off. Residues count along the entry.
UniProt P01108: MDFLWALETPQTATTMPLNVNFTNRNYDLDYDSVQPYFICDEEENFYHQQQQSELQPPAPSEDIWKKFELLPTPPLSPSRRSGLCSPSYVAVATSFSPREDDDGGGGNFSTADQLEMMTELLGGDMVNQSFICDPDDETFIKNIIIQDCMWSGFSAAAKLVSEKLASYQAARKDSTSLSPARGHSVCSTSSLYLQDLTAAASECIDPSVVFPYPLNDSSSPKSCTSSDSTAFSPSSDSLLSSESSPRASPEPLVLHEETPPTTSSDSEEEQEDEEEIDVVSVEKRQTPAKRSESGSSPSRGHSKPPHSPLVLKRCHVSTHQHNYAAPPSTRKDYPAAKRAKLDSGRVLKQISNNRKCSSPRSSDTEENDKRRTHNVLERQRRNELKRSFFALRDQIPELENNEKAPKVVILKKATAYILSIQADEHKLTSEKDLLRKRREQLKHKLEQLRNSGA
UniProt Q8CHC4: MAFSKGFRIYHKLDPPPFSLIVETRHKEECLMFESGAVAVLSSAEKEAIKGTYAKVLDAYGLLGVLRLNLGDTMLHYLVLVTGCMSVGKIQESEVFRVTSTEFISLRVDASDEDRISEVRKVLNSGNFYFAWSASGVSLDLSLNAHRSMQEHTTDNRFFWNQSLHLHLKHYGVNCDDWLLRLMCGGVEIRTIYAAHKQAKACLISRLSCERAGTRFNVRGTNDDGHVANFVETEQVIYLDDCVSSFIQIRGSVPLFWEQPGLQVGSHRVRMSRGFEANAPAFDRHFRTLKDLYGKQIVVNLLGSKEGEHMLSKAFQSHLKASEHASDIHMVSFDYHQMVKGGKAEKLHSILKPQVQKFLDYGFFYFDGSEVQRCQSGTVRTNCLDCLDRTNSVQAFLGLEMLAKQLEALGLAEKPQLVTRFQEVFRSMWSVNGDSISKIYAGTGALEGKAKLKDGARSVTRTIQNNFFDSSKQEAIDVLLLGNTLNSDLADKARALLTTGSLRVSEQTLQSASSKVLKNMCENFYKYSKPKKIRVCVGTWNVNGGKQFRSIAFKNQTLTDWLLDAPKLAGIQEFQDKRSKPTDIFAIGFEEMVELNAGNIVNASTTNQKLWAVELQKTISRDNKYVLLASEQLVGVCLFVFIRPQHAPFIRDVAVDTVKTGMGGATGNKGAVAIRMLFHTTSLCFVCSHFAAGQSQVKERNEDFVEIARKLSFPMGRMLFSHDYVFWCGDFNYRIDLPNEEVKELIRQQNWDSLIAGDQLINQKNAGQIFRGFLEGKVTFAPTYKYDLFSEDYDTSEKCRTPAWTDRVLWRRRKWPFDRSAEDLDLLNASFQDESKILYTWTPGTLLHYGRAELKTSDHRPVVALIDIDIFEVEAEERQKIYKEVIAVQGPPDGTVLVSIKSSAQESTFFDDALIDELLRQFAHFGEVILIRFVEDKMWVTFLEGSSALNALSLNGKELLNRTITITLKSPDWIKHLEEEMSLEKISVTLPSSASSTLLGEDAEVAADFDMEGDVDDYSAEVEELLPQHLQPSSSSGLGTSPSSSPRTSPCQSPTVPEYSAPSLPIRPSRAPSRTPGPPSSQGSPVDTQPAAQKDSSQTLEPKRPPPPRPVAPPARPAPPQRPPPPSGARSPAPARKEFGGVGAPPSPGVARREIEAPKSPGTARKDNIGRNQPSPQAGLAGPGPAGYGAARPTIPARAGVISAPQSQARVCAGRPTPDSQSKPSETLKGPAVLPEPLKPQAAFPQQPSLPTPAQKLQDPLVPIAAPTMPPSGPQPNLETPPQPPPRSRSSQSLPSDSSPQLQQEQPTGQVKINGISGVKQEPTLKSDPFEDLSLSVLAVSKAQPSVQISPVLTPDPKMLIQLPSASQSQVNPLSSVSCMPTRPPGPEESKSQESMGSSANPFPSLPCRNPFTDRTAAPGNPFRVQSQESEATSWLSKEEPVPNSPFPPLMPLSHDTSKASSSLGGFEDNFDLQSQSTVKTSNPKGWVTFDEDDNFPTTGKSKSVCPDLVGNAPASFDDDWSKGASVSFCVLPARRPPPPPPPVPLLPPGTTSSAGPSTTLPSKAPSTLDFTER
UniProt Q7SIG6: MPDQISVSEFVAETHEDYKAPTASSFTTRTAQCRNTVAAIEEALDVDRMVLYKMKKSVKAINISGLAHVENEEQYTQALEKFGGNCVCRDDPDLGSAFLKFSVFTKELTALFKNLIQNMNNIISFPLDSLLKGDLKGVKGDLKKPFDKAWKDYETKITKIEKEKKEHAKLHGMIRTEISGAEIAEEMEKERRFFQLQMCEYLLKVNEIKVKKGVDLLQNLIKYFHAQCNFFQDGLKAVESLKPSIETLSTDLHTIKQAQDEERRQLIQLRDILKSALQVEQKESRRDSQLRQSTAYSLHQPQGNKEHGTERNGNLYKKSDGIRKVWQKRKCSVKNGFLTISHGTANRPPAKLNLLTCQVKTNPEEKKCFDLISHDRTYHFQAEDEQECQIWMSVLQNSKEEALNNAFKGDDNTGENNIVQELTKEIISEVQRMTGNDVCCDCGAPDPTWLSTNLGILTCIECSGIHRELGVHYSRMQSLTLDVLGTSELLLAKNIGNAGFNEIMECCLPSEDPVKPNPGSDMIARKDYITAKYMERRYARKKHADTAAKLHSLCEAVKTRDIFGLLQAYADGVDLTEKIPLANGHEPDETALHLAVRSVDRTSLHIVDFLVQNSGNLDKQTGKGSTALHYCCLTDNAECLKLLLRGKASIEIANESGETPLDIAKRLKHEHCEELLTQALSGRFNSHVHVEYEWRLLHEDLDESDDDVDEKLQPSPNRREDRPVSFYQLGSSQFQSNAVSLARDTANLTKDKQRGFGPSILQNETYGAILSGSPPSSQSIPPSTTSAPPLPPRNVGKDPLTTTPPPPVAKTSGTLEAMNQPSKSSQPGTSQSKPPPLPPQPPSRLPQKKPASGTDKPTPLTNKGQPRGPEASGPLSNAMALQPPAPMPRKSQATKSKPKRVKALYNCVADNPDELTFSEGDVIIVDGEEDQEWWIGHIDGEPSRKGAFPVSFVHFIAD
UniProt Q62421: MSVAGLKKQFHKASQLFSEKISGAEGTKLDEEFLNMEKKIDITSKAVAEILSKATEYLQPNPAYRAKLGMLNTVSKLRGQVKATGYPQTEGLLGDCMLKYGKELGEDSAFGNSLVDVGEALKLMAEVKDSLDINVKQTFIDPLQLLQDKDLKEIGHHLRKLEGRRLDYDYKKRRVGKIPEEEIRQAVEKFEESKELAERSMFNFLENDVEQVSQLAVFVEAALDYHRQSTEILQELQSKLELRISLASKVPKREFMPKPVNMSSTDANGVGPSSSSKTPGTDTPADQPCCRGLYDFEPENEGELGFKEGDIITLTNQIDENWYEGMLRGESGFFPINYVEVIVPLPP
UniProt P56818, residues 46-501: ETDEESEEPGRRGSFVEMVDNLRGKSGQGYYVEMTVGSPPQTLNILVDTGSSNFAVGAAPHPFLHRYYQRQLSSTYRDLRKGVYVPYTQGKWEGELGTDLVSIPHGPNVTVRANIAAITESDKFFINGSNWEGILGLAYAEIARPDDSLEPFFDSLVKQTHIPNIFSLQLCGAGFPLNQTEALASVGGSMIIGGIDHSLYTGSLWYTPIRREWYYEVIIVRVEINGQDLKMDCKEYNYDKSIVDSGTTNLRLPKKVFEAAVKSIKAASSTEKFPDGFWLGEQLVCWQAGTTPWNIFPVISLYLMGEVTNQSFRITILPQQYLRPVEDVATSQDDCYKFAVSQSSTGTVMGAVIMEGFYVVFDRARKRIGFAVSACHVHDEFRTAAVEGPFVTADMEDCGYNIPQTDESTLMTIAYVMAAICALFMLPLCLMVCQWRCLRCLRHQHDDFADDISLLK

T1: BIN1iso1-TID (human BIN1 isoform 1-TurboID-V5 fusion protein), expressed in mouse brain neurons (human) (UniProt O00499)
T1 sequence: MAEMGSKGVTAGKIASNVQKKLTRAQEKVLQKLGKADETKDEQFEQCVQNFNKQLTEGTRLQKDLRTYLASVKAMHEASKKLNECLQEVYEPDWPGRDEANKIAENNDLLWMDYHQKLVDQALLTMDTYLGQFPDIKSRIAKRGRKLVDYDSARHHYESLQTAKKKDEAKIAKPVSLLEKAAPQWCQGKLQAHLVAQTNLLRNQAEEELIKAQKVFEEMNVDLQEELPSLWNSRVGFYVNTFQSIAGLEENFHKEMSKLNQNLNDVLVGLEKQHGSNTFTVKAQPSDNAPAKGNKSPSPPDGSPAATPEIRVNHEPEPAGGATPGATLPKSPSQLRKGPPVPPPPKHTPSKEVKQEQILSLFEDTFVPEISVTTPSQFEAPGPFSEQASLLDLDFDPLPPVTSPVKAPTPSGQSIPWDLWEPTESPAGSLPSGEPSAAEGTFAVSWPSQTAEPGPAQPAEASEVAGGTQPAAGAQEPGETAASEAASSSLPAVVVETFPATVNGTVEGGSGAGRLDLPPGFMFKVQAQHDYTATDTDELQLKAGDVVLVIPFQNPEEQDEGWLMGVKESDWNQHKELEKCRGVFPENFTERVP

T2: BIN1iso1-TID (human BIN1 isoform 1-TurboID-V5 fusion protein), expressed in N2a cells (human) (UniProt O00499)
T2 sequence: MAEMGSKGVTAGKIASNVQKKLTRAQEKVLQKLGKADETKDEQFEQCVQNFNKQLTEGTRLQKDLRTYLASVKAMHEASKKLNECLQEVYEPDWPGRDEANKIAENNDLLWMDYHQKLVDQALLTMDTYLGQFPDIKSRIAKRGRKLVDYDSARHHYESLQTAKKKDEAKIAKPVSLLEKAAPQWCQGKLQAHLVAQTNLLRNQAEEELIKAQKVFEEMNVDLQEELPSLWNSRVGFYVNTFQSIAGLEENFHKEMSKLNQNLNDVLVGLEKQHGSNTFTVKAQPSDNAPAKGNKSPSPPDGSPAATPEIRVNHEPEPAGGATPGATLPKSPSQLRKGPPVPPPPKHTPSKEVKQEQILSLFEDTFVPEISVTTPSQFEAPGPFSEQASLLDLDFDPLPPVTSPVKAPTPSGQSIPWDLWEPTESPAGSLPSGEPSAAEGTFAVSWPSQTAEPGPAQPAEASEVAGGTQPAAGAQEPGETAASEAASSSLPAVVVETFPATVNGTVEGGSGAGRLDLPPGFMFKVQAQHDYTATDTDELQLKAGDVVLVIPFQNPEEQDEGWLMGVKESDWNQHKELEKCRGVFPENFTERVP

B1: RIN3 (protein, UniProt P59729 1-980)
chain: MRRAEAPSSAHPAGPIPDAGKGEGEEDEEKDGTRLGLSTTPRNCIPRRGISVLEKLVKTCPVWLQLGLGQAEAAKILQQEMAGMFLVCRDNNLKQLVLCVHFPSLKGSSAEVLEYPIKEEKAILYLEGSVLVFEDIFRLIAFYCVSRDLLPFTLRLPQAILEASSFLELETISNLGLGFWDSSLNSRGSAEPLRSPAPGTPASSSLRPTTHYANCSCEIELSVGNDRLWFVNPIFIEDCILPADPPPLPTGSYPPRPTPATPDATSPTSKGSPRRPPPPPPLPTVPPTGPARPLAPPVPPAGPLPNSPLTPTSHLAPHAPGPPGHSNQPPMTACESLPRPAVGLGPFGEEEMKPGTTPNPLHQAPPPPLPLKKALPAAPPRRRISERVSLESQNVGTSTDRDHSGISRTASLNLPPQSTVSSLGDRPPRTTEQSQDTEAKASHADSIPVPPGKAKQPPVPPPRKKRVSRQLASTLLSPLESPIQEASSEKQATGASWEGLSPVRQAGMQHLQVQSSSCPQSSPEFKGSQASLSDSLGVPASAADQDSYSTSSAEEELEFSSPNVKKKPSMILDKARHRLSFVSFASVFHAFLSSDRKLYKKVVELAQDKSSYFGSLVQDYKVYSLEMMARQTSSTEMLQEIRTMMTQLKSYLLQSTELKALVEPTLHSEEELEAIVESALYKCVLKPLKEAINSSLLEIHSRDGSLQQLKENQLVVLATTTTDLGVTTSVPEVAVMEKILQKLTSMHKAYSPGKKISILLKTCKLIYDSMALGNPGKPYGADDFLPVLMYVLARSNLTEMLLNVEYMMELMDPALQLGEGSYYLTTTYGALEHIKNYDKITVTRQLSVEVQDSIHRWERRRTLNKARASRSSVQDFICVSYLKPEQQSRTLASRADTAAQALCAQCAEKFEVSQPQDYRLFVLVDGRCFQLADEALPHRIKGYLLRSEPKRDFHFVYRPQDSGKDASSQPCIVVREPNFL
B2: AMPH (protein, UniProt Q7TQF7 1-686)
chain: MADIKTGIFAKNVQKRLNRAQEKVLQKLGKADETKDEQFEEYVQNFKRQEAEGTRLQRELRGYLAAIKGMQEASMKLTESLHEVYEPDWYGREDVKMVGEKCDVLWEDFHQKLVDGSLLTLDTYLGQFPDIKNRIAKRSRKLVDYDSARHHLEALQSSKRKDESRISKAEEEFQKAQKVFEEFNVDLQEELPSLWSSRVGFYVNTFKNVSSLEAKFHKEIAVLCHKLYEVMTKLGDQHADKAFSIQGAPSDSGPLRIAKTPSPPEEPSPLPSPTASPNHTLAPASPAPVRPRSPSQTRKGPPVPPLPKVTPTKELKQENIINFFEDNFVPEINVTTPSQNEVLEVKKEETLLDLDFDPFKPDVAPAGSAAATHSPMSQTLPWDLWTTSTDLVQPASGGSFNDFTQAQDTSLFTMQTDQNMAETEQALPTEPQAEEPPATAAAPTAGLDLGLEMEEPKEEAVIPPATDTGETVETAVPTEGAPVEEAEAEKAALPAGEGGSPEGAKIDGESTELAISESPQPVEPEAGAPQVIPSVVIEPASNHEGEGEHQETATGTEPREAAEDVAAQGSAGEKQEVATEPTPLDSQATLPASAGAVDASLSAGDATQELPPGFLYKVETLHDFEAANSDELNLQRGDVVLVVPSDSEADQDAGWLVGVKESDWLQYRDLATYKGLFPENFTRRLE
B3: DYN1 (protein, UniProt P39053 1-867)
chain: MGNRGMEDLIPLVNRLQDAFSAIGQNADLDLPQIAVVGGQSAGKSSVLENFVGRDFLPRGSGIVTRRPLVLQLVNSTTEYAEFLHCKGKKFTDFEEVRLEIEAETDRVTGTNKGISPVPINLRVYSPHVLNLTLVDLPGMTKVPVGDQPPDIEFQIRDMLMQFVTKENCLILAVSPANSDLANSDALKIAKEVDPQGQRTIGVITKLDLMDEGTDARDVLENKLLPLRRGYIGVVNRSQKDIDGKKDITAALAAERKFFLSHPSYRHLADRMGTPYLQKVLNQQLTNHIRDTLPGLRNKLQSQLLSIEKEVDEYKNFRPDDPARKTKALLQMVQQFAVDFEKRIEGSGDQIDTYELSGGARINRIFHERFPFELVKMEFDEKELRREISYAIKNIHGIRTGLFTPDMAFETIVKKQVKKIREPCLKCVDMVISELISTVRQCTKKLQQYPRLREEMERIVTTHIREREGRTKEQVMLLIDIELAYMNTNHEDFIGFANAQQRSNQMNKKKTSGNQDEILVIRKGWLTINNIGIMKGGSKEYWFVLTAENLSWYKDDEEKEKKYMLSVDNLKLRDVEKGFMSSKHIFALFNTEQRNVYKDYRQLELACETQEEVDSWKASFLRAGVYPERVGDKEKASETEENGSDSFMHSMDPQLERQVETIRNLVDSYMAIVNKTVRDLMPKTIMHLMINNTKEFIFSELLANLYSCGDQNTLMEESAEQAQRRDEMLRMYHALKEALSIIGDINTTTVSTPMPPPVDDSWLQVQSVPAGRRSPTSSPTPQRRAPAVPPARPGSRGPAPGPPPAGSALGGAPPVPSRPGASPDPFGPPPQVPSRPNRAPPGVPSLGAWRLNSPQGKHENRAGKARL
B4: SYNJ2 (protein, UniProt Q9D2G5 1-1434)
chain: MALSKGLRLLARLDPTGPSSVLLEARGRGDCLLFEAGAVATLAPEEKEVIKGLYSKLTDAYGCLGELRLQSGGVPLSFLVLVTGCMSVGRIPDAEIYKITATELYPLQEEAKEEDRLPTLKKILSSGVFYFAWPNDGACFDLTIRAQKQGDDGSEWGTSFFWNQLLHVPLRQHQVNCHNWLLKVICGVVTIRTVYASHKQAKACLISRISCERAGARFLTRGVNDDGHVSNFVETEQTIYMDDGVSSFVQIRGSVPLFWEQPGLQVGSHHLRLHRGLEANAPAFERHMVLLKEQYGKQVVVNLLGSRGGEEVLNRAFKKLLWASCHAGDTPMINFDFHQFAKGRKLEKLENLLRPQLQLHWEDFGVFAKGENVSPRFQKGTLRMNCLDCLDRTNTVQCFIALEVLHLQLESLGLNSKPIIDRFVESFKAMWSLNGHSLSKVFTGSRALEGKAKVGKLKDGARSMSRTIQSNFFDGVKQEAIKLLLVGDVYNEESTDKGRMLLDNTALLATPRILKAMTERQSEFTNFKRIQIAVGTWNVNGGKQFRSNLLGTAELTDWLLDAPQLSGAVDSQDDGSPADVFAIGFEEMVELSAGNIVNASTTNRKMWGEQLQKAISRSHRYILLTSAQLVGVCLYIFVRPYHVPFIRDVAIDTVKTGMGGKAGNKGAVGIRFQLHSTSFCFVCSHLTAGQSQVKERNEDYREITHKLSFPSGRNIFSHDYVFWCGDFNYRIDLTYEEVFYFVKRQDWKKLMEFDQLQLQKSSGKIFKDFHEGAVNFGPTYKYDVGSAAYDTSDKCRTPAWTDRVLWWRKKHPYDKTAGELNLLDSDLDGDPQIRHTWSPGTLKYYGRAELQASDHRPVLAIVEVEVQEVDVGARERVFQEVSSVQGPLDATVVVNLQSPTLEEKNEFPEDLRTELMQTLGNYGTIILVRINQGQMLVTFADSHSALSVLDVDGMKVKGRAVKIRPKTKDWLEGLREELLRKRDSMAPVSPTANSCLLEENFDFSSLDYESEGDVLEEDEDYLVDGFGQPVVSDSELGGDNSSDTMSSLTPASKSPALAKKKQHPTYKAGLMVKKSASDASISSGTHGQYSILQTAKLLPGAPQQPPKARTGISKPYNVKQIKTTNAQEAEAAIRCLLEASGGVPESAPGAIPLRNQGSSKPEATLGPPALPRRPAPRVPTMKKPTLRRTGKPMLPEENFEPQPVHFTMASQEMNLETPPPITATPIPPVPKPRTLQPGKGVEGRPSSGKPEPDEAPSVTGTVESPPPEAQEAPSLAPKVPPRRKKSAPAAFHLQVLQNNSQVLQGLTCSSSSPPSLKPDTHPLCLQVALGTSSARSPETHGPRVTEPEAASFHGNYPDPFWSLLHHPKLLNNTWLSKSSEPLDVGSRNPERTHTEPAQVNASLAERGLPPDHGGKDLSHWVTASNKDKRTTLGV

What follows are molecules tested against T1, BIN1iso1-TID (human BIN1 isoform 1-TurboID-V5 fusion protein), expressed in mouse brain neurons (human) (assay: proximity labelling; BIN1iso1-TID expressed in mouse brain neurons (AAV-PHP.eB, human SYN1 promoter); biotin 0.5 mg/ml in drinking water for 5 days; hippocampus-cortex RIPA lysate, streptavidin magnetic beads, DIA LC-MS/MS; enrichment over Cyto-TID (Welch p<0.05, z-score >1), n = 11 against 9).
For B1, the binding was “binds”. B2 was tested, and the binding was “binds”. For B3, the binding was “binds”.

Each molecule was assayed against T2, BIN1iso1-TID (human BIN1 isoform 1-TurboID-V5 fusion protein), expressed in N2a cells (human) (assay: proximity labelling; BIN1iso1-TID (TurboID fusion) stably expressed in N2a cells; 50 μM biotin for 30 min at 37 °C; RIPA lysis, streptavidin magnetic beads, DIA LC-MS/MS; enrichment over Cyto-TID (Welch p<0.05, z-score >1), n = 3).
For “endogenous mouse BIN1 (from UniProt O08539 1-588)”, the binding was “binds”. In the case of MYC (from UniProt P01108 1-454), the binding is reported as “no binding”. For SYNJ1 (from UniProt Q8CHC4 1-1574), the binding was “binds”. With B4 the binding was “binds”.

Molecular target: T1, BIN1iso1-TID (human BIN1 isoform 1-TurboID-V5 fusion protein), expressed in mouse brain neurons (human)
Experiment: proximity labelling; BIN1iso1-TID expressed in mouse brain neurons (AAV-PHP.eB, human SYN1 promoter); biotin 0.5 mg/ml in drinking water for 5 days; hippocampus-cortex RIPA lysate, streptavidin magnetic beads, DIA LC-MS/MS; enrichment over Cyto-TID (Welch p<0.05, z-score >1), n = 11 against 9
Remark: another data set of the same source
ASAP2 (from UniProt Q7SIG6 1-958) was tested, and the binding was “binds”. With SH3G3 (from UniProt Q62421 1-347) the binding was “binds”. For BACE1 (from UniProt P56818 46-501), the binding was “no binding”. SYNJ1 (from UniProt Q8CHC4 1-1574) was tested, and the binding was “binds”.
